The record followed here is publication doi:10.1101/2021.11.20.466133.

Construct, isoform or probe ends are uncertain for at least one entry.

The data set has as its system RNAP (RNA polymerase). The data set is described as follows: EMSA. To be noted: positive control.

On to “GGATACGTAACAACGCTTATGCATCGCCGCCGCTACATCCCTGAGCTGAC (double strand) [dsDNA 50mer]”, for which the binding result is “binds”.
